Laboratory results as given in article PMC4961794.

Amino acid sequences for entries named in this document (tags omitted).
UniProt Q9NRC8: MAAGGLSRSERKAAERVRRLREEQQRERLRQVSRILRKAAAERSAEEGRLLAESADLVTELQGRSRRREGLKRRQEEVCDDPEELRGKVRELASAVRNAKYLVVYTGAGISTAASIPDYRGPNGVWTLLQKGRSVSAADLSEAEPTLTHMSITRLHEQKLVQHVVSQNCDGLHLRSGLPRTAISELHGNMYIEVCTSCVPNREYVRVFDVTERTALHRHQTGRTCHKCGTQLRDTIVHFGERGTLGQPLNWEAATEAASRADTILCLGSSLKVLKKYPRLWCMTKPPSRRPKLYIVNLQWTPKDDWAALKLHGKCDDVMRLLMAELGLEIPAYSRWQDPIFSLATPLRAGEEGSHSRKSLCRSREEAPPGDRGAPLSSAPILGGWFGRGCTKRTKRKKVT
UniProt P12956: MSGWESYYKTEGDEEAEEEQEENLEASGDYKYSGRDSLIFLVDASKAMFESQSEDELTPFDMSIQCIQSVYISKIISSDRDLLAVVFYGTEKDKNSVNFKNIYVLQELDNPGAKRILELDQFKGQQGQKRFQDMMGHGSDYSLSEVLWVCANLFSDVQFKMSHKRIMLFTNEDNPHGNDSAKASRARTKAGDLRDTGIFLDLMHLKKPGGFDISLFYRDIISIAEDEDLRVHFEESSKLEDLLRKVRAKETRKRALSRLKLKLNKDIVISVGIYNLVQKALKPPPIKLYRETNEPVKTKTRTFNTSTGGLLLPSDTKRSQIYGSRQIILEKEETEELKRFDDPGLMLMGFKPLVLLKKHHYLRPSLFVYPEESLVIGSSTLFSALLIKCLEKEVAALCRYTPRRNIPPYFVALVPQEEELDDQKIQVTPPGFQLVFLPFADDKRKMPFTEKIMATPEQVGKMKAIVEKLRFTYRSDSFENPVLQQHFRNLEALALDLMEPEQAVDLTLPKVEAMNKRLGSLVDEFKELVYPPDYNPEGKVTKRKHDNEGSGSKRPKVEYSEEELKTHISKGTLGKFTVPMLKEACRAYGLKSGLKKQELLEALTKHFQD
UniProt P13010: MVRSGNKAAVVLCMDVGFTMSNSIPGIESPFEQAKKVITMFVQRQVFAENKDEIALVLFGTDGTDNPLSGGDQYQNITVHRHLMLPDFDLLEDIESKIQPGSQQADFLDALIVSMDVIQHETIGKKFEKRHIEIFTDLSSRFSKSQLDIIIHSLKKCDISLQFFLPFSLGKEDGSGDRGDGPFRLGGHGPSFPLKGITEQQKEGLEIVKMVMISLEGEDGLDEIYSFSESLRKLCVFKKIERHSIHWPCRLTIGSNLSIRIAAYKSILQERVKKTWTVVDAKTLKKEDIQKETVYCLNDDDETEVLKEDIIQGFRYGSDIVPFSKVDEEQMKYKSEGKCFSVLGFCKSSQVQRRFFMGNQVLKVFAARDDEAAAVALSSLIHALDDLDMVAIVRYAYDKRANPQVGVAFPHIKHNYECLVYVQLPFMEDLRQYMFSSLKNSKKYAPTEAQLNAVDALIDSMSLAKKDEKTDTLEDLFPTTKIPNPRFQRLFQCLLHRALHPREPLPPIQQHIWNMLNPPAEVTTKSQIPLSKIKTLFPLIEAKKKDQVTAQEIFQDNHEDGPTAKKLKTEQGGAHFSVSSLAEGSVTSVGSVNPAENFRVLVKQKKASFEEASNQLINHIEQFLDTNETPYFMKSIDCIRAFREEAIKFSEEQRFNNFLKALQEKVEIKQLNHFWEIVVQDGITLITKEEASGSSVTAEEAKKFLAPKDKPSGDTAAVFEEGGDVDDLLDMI
UniProt P09874: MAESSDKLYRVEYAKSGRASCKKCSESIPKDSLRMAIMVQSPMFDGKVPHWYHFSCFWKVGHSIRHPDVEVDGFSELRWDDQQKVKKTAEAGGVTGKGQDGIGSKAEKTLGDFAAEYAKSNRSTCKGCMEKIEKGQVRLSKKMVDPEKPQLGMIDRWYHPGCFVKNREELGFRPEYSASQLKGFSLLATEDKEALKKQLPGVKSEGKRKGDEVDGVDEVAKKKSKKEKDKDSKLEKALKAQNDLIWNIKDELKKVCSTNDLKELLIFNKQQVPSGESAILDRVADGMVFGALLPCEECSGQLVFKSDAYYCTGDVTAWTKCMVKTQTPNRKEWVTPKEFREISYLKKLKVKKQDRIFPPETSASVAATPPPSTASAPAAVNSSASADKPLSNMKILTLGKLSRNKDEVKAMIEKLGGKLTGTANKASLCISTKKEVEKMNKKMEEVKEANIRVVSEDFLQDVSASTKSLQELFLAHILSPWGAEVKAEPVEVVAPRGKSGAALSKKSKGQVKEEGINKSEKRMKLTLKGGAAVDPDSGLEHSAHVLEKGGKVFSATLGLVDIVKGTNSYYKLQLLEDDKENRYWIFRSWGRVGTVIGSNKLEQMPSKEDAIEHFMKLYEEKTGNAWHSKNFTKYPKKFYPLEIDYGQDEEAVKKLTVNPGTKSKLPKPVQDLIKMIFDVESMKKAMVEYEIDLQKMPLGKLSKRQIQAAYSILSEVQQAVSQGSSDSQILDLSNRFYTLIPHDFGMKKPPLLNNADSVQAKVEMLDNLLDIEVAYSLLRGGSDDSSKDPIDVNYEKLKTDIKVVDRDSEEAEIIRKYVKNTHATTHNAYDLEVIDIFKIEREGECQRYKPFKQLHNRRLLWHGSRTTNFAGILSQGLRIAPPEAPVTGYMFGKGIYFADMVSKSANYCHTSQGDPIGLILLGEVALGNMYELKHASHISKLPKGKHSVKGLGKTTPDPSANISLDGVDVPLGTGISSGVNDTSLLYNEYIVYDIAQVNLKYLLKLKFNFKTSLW
UniProt Q92878: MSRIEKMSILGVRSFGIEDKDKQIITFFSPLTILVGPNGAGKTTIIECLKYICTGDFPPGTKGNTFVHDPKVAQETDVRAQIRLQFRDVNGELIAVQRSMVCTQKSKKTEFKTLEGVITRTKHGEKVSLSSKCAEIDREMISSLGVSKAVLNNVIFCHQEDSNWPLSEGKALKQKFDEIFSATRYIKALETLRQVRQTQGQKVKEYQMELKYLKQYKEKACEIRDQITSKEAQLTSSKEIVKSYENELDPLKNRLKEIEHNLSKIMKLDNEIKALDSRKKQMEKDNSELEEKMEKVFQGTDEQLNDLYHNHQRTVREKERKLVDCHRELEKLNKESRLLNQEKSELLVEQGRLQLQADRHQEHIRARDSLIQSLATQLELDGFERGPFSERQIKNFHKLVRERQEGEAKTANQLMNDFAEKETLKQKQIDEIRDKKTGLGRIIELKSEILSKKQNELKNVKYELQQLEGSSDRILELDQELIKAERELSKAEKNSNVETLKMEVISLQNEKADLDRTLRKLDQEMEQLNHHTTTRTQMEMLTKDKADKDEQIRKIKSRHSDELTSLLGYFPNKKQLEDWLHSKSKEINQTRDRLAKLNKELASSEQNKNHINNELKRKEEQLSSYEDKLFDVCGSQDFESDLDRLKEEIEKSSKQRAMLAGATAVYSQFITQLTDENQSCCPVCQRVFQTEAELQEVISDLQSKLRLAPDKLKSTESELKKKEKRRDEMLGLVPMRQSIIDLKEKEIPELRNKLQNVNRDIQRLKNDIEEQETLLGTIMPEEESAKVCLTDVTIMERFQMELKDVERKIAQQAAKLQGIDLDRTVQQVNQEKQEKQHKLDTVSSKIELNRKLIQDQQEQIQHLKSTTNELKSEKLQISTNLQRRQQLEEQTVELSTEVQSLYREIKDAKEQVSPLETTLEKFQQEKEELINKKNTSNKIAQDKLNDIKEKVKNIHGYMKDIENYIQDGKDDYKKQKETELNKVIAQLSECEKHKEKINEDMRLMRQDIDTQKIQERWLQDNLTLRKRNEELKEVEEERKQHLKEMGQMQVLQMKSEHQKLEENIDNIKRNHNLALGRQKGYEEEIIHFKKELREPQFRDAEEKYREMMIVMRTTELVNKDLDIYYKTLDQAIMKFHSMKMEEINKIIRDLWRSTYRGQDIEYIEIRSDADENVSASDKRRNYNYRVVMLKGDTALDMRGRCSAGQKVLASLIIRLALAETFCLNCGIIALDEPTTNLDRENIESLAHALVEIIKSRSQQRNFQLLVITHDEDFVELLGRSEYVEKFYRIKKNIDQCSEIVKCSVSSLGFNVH

Biological target: FLAG-SIRT7wt (human) (UniProt Q9NRC8)
Test: affinity purification with mass spectrometry; whole-cell extracts of HEK293T cells expressing vector or FLAG-SIRT7wt; lysis buffer 50 mM Tris-HCl pH 7.4, 150 mM NaCl, 0.3% Nonidet P-40, 1 mM DTT, 5 mM EDTA; anti-FLAG M2 gel 2 h at 4 °C; eluted with FLAG peptide; gel silver stained; bands analysed by LC-MS/MS

Substance	binding
DNA-PKcs (from UniProt P78527 1-4128)	binds
Ku70 (from UniProt P12956 1-609)	binds
Ku80 (from UniProt P13010 1-732)	binds
PARP1 (from UniProt P09874 1-1014)	binds
RAD50 (from UniProt Q92878 1-1312)	binds

These are yes or no findings as the source states them, for the method shown. In cells and extracts the contact can be indirect. Here binding means that the protein was enriched with, or labelled near, the bait; the list need not be complete.
